Like-named read-outs stand apart in the source and are kept apart here.

These results are taken from patent publication US20090258878A1, “TRIAZINE DERIVATIVE COMPOUND AND COMPOSITION FOR TREATING CANCER […]” (priority 2006, published 2009).

The subject of this data set is MCF-7 tumor cells. Particulars: nude mouse. On the procedure: Weekly administration of experiment compound was initiated 2 days after measurement of tumor size. The concentration of the first administration was 500 μM, respectively.
Where [1] appears, read: 1 week after First Administration, 500 μM.
[2] abbreviates: 1 day before First Administration.
[3] abbreviates: the day of First Administration, 500 μM.

Take `C=CCNc1nc(NCCCC)nc(NCc2ccc(C(=O)NCCOCCOCCNC(=O)c3ccccc3)cc2)n1` [Dan-BC1]: the Weight runs as follows: under setting [1], 19.5 g; under setting [2], 18.5 g; under setting [3], 21.2 g.
The like results for `CCCCNc1nc(NCc2ccncc2)nc(NCc2ccc(C(=O)NCCOCCOCCNC(=O)c3ccccc3)cc2)n1` [Dan-BC2] were, in that order, 20.5 g, 19.5 g and 21.2 g.
Compound `CCCCNc1nc(NCc2ccc(C(=O)NCCOCCOCCNC(=O)c3ccccc3)cc2)nc(NC(CC)CC)n1` [Dan-BC3] gave a Weight under setting [1] of 20.5 g, a Weight under setting [2] of 19.5 g and a Weight under setting [3] of 21.2 g.
